Laboratory results as given in PMC3623790.
These are yes or no findings as the source states them, for the method shown. Binding seen in cells or lysates may run through a third protein. Some entries that bind do so weakly or less than the wild type.

Amino acid sequences for entries named in this document (tags omitted).
UniProt P48754: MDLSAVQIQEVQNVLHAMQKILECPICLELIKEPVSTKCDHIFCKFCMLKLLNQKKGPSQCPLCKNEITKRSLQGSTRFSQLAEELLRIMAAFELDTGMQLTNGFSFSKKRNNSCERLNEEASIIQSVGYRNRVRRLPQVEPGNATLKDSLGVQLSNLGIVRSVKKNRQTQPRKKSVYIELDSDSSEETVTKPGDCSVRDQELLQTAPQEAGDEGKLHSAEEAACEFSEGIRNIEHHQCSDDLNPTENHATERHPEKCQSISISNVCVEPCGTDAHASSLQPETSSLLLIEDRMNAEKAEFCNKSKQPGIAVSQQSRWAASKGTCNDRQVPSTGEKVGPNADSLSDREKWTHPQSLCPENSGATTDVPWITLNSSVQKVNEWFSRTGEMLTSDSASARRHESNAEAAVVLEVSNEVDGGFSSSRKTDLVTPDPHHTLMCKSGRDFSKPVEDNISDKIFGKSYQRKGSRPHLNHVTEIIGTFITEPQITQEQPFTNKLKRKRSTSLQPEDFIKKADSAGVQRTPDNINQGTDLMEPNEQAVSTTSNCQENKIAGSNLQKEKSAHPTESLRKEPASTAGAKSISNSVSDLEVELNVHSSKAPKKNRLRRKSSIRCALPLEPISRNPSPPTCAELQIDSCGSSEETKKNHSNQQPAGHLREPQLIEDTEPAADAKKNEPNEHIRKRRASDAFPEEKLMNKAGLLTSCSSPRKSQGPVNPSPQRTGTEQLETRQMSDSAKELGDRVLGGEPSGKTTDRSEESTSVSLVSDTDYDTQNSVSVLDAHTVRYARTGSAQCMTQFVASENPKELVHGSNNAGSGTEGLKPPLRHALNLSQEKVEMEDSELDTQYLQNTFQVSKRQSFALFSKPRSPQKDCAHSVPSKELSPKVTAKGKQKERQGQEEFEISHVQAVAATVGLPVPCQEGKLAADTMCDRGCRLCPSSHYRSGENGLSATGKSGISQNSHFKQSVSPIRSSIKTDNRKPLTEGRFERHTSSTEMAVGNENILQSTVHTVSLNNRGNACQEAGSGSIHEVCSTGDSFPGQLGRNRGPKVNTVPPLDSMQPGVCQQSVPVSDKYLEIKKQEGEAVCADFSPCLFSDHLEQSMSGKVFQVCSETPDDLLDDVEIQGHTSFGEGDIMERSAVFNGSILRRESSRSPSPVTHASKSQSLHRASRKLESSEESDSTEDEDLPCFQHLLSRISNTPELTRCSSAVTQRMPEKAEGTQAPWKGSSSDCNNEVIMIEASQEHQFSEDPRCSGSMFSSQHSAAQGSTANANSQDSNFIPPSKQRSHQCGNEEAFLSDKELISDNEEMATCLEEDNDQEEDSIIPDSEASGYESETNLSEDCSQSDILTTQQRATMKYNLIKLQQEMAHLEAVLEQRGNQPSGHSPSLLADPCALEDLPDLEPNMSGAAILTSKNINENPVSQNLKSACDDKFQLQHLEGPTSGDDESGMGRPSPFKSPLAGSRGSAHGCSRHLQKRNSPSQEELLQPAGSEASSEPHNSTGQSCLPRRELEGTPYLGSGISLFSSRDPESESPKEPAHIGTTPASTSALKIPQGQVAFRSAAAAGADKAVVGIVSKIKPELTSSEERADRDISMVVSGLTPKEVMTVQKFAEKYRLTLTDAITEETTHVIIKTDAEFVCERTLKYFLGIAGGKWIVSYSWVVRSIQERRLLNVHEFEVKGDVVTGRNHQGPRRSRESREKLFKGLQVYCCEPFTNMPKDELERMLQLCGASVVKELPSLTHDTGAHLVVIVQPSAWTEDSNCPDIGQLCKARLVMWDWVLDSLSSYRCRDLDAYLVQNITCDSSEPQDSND
UniProt Q9JKK8: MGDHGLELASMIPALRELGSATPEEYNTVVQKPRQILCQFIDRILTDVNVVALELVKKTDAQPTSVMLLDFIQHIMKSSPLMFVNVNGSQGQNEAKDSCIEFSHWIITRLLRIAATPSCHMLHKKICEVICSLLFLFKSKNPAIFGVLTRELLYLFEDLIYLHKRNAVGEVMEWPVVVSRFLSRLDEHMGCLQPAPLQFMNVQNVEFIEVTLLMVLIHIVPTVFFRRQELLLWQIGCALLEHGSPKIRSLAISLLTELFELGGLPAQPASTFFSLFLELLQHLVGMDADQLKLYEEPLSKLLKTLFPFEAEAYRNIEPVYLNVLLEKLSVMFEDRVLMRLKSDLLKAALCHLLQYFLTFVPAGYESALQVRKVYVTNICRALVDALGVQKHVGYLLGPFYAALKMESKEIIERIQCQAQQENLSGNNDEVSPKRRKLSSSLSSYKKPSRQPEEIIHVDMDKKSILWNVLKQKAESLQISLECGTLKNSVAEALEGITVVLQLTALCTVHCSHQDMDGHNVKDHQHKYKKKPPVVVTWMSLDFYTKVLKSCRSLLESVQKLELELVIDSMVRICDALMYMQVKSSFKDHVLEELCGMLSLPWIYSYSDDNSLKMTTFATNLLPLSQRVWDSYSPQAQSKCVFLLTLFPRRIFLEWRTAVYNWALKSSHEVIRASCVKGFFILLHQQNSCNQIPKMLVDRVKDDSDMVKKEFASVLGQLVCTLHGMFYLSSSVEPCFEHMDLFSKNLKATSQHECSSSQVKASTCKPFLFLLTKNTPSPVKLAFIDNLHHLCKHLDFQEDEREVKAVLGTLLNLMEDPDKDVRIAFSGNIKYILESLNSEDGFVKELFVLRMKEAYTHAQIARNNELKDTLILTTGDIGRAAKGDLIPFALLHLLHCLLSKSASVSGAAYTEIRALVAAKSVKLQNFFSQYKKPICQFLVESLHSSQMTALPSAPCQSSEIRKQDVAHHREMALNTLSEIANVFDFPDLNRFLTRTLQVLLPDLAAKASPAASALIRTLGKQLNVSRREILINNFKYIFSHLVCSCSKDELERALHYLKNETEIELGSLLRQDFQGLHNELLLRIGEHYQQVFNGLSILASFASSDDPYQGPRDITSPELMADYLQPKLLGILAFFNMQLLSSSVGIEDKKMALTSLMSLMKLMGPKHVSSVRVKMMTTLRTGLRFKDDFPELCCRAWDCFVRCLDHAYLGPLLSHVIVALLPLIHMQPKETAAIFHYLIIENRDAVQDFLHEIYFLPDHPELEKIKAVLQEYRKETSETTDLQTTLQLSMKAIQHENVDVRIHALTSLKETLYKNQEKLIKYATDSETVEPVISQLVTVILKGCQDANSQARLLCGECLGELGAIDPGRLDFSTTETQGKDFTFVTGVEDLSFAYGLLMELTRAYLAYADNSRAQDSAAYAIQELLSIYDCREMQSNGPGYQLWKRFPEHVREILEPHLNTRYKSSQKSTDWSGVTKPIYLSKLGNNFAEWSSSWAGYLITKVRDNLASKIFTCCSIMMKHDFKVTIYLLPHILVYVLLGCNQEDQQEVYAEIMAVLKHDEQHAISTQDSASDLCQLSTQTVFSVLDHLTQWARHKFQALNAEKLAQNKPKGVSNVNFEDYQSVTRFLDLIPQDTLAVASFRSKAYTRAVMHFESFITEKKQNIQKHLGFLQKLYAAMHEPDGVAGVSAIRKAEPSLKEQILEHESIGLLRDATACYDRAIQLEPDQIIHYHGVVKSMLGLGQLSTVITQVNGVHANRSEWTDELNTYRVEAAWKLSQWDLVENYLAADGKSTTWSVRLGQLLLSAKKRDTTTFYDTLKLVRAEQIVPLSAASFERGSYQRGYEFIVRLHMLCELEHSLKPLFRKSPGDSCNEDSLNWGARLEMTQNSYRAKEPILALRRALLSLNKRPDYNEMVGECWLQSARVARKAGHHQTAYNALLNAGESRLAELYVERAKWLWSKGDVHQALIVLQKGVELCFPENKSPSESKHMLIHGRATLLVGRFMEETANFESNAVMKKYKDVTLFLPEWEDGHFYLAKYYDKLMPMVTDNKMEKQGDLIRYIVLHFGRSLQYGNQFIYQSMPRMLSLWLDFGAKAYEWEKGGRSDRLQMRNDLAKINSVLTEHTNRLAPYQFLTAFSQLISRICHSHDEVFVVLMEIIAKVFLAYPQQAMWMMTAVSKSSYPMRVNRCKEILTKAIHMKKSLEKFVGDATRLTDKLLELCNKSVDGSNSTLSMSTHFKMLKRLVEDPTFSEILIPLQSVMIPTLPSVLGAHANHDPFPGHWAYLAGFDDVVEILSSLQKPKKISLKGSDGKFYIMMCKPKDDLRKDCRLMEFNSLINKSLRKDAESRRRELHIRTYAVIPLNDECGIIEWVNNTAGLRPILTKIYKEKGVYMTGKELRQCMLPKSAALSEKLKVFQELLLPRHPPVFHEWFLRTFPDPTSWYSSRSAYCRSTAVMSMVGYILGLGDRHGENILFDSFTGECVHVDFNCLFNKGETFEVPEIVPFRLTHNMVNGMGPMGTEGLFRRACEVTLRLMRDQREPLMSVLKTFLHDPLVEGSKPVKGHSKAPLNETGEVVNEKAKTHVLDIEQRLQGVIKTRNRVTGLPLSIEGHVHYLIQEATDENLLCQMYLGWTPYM

Target: Brca1 (mouse (endogenous in testes)) (UniProt P48754)
Test: proximity ligation; in situ PLA (Duolink) on Setx+/+ pachytene spermatocyte spreads, endogenous proteins; rabbit anti-mouse Brca1, sheep anti-senataxin (Ab-1), goat anti-ATR; SCP3 counterstain

For “ataxia-telangiectasia and Rad3 related (ATR) (from UniProt Q9JKK8 1-2635)”, the binding was “binds”.
